Results deposited as PubChem BioAssay AID652243 (Drosophila RNAi Screening Center, 2013)
In all, the deposit lists about 24,000 reagents; this is a random part of those that have a named target and a result. Of all reagents, 246 (1%) got an active call. 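Plates not normalised; calls are printed but the firefly/Renilla ratio behind them is not deposited; fold cut for lowering reported inconsistently.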 The raw values are shown without normalisation. Entries without a mark were called inactive. Reagents against one gene are numbered here. Not given: the amount of reagent.

- Aim: 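Knock-downs that decrease or increase androgen receptor reporter signal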 (primary screen)
- System: Drosophila S2R+ cells
- Reagent: long dsRNA against Drosophila genes
- Time to read-out: 72 h (48 h, then 24 h hormone)
- Conditions: synthetic androgen R1881 at 10 nM for 24 h
- Detection: 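Firefly light from an androgen-responsive reporter and Renilla control light per well, raw and unnormalised, for each of two replicates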
- Reading the numbers: firefly reporter light: higher = more light from androgen-responsive reporter; Renilla control light: higher = more constitutive control signal (cell number, transfection)
- Hit rule: 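Across duplicate plates, a knock-down whose log firefly/Renilla ratio shifted a set fold down or up from the GFP/LacZ control mean was a hit; the downward cut appears as both 1.5 and 3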
- Meaning of the calls: active = hit: reporter lowered or raised; inactive = no hit

Silencing of chic gave: firefly reporter light, replicate 1 = 2.29e5; firefly reporter light, replicate 2 = 2.15e5; Renilla control light, replicate 1 = 2.69e6; Renilla control light, replicate 2 = 1.78e6. Knock-down of CG15443 resulted in: firefly reporter light, replicate 1 = 1.40e5; firefly reporter light, replicate 2 = 84161; Renilla control light, replicate 1 = 1.01e6; Renilla control light, replicate 2 = 9.51e5. Dpit47 #1 showed firefly reporter light, replicate 1 = 2.55e5; firefly reporter light, replicate 2 = 1.98e5; Renilla control light, replicate 1 = 1.20e6; Renilla control light, replicate 2 = 7.45e5. After knock-down of Dpit47 #2 the results were firefly reporter light, replicate 1 = 3.94e5; firefly reporter light, replicate 2 = 4.41e5; Renilla control light, replicate 1 = 1.10e6; Renilla control light, replicate 2 = 1.37e6. Against CG8155 #1 the deposit lists firefly reporter light, replicate 1 = 7.19e5; firefly reporter light, replicate 2 = 8.60e5; Renilla control light, replicate 1 = 1.32e6; Renilla control light, replicate 2 = 1.09e6. CG8155 #2 gave firefly reporter light, replicate 1 = 9.79e5; firefly reporter light, replicate 2 = 9.71e5; Renilla control light, replicate 1 = 2.34e6; Renilla control light, replicate 2 = 2.23e6.

After knock-down of CG8155 #3, the record shows firefly reporter light, replicate 1 = 5.48e5; firefly reporter light, replicate 2 = 5.96e5; Renilla control light, replicate 1 = 9.19e5; Renilla control light, replicate 2 = 1.47e6. CG5810 #1 gave firefly reporter light, replicate 1 = 2.83e5; firefly reporter light, replicate 2 = 2.34e5; Renilla control light, replicate 1 = 3.29e6; Renilla control light, replicate 2 = 2.99e6. CG5810 #2 gave firefly reporter light, replicate 1 = 7.40e5; firefly reporter light, replicate 2 = 5.55e5; Renilla control light, replicate 1 = 1.61e6; Renilla control light, replicate 2 = 1.41e6. For Fancd2 #1 the deposit lists firefly reporter light, replicate 1 = 2.46e5; firefly reporter light, replicate 2 = 3.64e5; Renilla control light, replicate 1 = 2.45e6; Renilla control light, replicate 2 = 3.10e6. With knock-down of Fancd2 #2, the record shows firefly reporter light, replicate 1 = 9.34e5; firefly reporter light, replicate 2 = 1.27e6; Renilla control light, replicate 1 = 1.67e6; Renilla control light, replicate 2 = 2.03e6. Against CG11170 #1 the deposit lists firefly reporter light, replicate 1 = 1.06e6; firefly reporter light, replicate 2 = 3.47e5; Renilla control light, replicate 1 = 1.85e6; Renilla control light, replicate 2 = 6.25e5.

Knock-down of CG11170 #2 gave: firefly reporter light, replicate 1 = 5.28e5; firefly reporter light, replicate 2 = 4.87e5; Renilla control light, replicate 1 = 1.43e6; Renilla control light, replicate 2 = 1.29e6.

A stretch taken from the entries so far, as a working copy:
CG8155 #1 — firefly reporter light, replicate 1: 7.19e5; firefly reporter light, replicate 2: 8.60e5; Renilla control light, replicate 1: 1.32e6; Renilla control light, replicate 2: 1.09e6
CG8155 #2 — firefly reporter light, replicate 1: 9.79e5; firefly reporter light, replicate 2: 9.71e5; Renilla control light, replicate 1: 2.34e6; Renilla control light, replicate 2: 2.23e6
